This note sets out measurements from doi:10.1101/2020.07.06.189340.

Sequences of proteins named here, by UniProt entry; tags and fusion partners are left off. A change or cut given only in a name is not applied to a line headed by its entry.
UniProt Q14203: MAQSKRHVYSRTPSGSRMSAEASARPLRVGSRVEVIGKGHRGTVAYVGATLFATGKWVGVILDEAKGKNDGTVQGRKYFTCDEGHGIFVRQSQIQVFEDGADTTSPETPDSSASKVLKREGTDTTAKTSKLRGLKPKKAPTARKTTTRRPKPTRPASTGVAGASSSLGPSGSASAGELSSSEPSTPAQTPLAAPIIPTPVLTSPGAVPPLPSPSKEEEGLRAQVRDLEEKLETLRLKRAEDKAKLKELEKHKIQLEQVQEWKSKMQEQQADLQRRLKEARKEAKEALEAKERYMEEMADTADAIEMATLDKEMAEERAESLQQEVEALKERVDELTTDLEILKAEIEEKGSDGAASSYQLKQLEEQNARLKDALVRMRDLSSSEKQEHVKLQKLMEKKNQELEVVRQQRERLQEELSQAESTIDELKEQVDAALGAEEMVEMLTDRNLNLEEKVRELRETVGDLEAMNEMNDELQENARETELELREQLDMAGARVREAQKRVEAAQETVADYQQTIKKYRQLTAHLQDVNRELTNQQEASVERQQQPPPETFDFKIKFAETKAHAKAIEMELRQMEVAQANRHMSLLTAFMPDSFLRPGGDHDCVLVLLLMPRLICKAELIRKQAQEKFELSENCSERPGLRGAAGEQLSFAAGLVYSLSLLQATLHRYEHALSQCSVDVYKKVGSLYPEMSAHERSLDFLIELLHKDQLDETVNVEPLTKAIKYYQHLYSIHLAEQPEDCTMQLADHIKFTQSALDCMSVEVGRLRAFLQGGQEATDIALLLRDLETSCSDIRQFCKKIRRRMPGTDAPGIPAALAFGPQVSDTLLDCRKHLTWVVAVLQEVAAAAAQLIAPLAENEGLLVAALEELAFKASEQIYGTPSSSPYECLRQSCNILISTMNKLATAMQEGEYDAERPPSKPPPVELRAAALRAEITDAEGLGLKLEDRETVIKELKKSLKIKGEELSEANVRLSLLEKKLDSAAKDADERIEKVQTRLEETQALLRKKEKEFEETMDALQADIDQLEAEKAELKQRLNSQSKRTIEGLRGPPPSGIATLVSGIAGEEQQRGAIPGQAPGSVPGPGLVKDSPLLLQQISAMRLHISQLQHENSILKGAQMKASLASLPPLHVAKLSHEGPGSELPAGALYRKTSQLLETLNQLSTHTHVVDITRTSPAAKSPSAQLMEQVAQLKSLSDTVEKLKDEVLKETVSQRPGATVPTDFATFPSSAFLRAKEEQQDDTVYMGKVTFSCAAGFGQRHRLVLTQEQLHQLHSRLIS
UniProt Q14204: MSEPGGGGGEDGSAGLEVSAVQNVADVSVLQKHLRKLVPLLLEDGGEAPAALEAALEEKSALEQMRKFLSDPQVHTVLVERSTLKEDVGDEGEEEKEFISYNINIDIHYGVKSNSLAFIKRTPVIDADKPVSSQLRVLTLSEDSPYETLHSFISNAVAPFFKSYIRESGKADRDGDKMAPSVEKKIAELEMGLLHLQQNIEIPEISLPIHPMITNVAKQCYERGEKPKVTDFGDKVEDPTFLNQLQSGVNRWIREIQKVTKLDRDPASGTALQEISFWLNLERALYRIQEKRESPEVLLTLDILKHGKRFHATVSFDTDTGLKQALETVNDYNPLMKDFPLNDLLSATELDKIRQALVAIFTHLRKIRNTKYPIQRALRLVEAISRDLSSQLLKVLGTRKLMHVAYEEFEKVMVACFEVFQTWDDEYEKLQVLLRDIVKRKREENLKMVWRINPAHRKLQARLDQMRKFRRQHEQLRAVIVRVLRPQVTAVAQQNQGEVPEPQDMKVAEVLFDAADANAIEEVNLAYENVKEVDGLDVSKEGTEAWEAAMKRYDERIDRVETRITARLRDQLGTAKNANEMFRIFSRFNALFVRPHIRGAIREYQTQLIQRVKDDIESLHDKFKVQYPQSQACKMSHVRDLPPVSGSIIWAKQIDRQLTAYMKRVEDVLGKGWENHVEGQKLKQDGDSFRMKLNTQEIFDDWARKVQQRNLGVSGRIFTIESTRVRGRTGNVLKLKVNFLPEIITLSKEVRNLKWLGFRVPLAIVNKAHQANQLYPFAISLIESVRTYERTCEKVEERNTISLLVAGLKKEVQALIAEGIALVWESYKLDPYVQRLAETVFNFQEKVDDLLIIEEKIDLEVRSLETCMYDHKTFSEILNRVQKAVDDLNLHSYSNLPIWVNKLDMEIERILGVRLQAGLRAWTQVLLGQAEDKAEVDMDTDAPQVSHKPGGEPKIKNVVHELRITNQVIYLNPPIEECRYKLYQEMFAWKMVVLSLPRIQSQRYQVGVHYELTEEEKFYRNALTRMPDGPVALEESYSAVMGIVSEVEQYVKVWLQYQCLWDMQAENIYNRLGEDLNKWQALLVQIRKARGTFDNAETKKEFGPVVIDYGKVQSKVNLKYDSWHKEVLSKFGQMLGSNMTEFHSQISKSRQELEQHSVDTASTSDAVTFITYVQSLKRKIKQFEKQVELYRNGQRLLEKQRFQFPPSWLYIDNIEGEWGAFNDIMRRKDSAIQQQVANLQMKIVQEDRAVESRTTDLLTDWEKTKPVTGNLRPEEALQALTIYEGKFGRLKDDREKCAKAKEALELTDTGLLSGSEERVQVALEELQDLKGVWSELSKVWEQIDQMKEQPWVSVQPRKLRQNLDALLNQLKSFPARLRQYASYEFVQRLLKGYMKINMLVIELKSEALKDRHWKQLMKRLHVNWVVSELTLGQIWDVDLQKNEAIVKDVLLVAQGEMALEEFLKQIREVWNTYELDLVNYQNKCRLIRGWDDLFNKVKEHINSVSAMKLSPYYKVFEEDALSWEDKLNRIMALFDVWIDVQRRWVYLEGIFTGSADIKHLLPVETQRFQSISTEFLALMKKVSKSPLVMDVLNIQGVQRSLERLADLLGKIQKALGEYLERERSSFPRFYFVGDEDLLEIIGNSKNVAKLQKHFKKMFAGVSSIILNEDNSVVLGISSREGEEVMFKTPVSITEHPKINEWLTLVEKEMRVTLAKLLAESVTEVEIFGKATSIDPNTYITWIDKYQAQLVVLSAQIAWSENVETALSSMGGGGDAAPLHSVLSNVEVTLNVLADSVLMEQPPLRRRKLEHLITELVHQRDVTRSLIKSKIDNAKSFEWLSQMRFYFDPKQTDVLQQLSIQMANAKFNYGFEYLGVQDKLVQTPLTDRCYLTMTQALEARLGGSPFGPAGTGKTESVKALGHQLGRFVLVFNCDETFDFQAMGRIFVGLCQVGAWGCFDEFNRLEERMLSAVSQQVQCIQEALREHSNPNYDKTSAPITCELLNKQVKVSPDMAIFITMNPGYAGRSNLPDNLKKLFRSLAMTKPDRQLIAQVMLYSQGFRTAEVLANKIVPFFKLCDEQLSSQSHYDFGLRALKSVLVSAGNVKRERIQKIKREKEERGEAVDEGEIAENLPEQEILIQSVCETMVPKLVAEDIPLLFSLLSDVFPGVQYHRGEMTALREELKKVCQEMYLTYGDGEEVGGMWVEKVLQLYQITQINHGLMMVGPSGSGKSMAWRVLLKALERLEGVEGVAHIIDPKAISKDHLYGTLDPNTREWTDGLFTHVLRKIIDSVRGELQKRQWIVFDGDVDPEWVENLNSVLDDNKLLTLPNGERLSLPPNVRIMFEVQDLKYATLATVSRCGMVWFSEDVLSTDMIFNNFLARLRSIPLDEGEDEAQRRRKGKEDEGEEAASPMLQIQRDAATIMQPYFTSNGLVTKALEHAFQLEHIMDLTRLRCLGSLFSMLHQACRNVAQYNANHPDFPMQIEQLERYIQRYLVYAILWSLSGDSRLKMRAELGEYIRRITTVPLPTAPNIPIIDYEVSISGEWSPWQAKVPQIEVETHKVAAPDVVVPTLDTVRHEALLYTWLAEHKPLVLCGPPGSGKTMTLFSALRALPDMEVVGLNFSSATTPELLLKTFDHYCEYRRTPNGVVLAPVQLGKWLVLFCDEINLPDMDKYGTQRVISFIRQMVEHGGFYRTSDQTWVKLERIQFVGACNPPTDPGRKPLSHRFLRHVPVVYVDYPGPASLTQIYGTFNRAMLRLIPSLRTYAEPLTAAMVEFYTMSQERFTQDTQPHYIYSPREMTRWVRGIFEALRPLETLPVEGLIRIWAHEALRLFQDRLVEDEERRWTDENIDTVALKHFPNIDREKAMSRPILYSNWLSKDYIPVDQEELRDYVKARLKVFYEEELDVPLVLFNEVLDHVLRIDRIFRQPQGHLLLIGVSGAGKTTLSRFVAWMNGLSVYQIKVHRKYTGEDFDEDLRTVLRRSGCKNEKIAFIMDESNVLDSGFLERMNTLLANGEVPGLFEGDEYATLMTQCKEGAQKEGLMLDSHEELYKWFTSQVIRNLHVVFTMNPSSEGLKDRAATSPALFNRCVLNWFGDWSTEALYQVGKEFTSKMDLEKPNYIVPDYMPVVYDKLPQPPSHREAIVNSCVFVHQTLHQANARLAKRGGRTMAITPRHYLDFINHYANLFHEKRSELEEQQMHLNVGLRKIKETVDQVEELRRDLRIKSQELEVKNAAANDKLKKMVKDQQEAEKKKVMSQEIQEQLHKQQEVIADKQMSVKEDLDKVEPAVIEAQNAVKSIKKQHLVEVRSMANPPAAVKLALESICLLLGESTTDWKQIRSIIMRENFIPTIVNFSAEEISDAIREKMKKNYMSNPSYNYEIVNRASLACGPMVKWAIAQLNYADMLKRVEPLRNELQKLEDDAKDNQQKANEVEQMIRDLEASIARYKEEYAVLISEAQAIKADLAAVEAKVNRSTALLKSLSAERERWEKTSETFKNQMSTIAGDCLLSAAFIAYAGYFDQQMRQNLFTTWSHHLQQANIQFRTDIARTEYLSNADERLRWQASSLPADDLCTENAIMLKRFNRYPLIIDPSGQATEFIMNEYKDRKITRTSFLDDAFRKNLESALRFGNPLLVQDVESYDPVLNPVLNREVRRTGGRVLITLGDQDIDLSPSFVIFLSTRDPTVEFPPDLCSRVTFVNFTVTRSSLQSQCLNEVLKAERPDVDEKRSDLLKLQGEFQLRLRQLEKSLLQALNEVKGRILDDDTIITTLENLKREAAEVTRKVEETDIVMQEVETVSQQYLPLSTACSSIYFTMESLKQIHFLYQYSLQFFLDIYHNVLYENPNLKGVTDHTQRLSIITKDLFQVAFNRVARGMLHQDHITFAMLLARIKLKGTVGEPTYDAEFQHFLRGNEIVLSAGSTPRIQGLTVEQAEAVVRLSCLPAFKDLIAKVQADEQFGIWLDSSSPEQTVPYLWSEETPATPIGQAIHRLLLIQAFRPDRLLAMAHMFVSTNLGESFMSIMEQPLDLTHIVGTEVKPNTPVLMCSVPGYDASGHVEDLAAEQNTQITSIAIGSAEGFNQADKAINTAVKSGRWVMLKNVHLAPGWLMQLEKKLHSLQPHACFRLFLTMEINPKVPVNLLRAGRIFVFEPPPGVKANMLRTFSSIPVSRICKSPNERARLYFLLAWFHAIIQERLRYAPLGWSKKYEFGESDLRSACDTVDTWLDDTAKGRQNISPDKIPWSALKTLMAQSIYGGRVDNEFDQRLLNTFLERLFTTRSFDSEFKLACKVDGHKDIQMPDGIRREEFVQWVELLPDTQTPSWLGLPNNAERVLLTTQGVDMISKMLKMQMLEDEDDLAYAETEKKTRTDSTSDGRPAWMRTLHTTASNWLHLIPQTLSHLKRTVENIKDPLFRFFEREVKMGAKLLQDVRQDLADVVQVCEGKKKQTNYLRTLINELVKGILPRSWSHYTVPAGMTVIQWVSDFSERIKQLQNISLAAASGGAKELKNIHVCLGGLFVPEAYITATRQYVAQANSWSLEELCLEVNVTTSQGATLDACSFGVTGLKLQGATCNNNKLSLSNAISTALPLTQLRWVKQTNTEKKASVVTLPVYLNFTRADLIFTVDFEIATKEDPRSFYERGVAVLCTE

Common to all, as to assay: co-IP
The target of assay [1] is p150^Glued, subunit of dynactin, endogenous (human (endogenous in HUVEC)) (UniProt Q14203).
Assay [2] has as its target T1, Rab46 (CRACR2A-L), endogenous (human (endogenous in HUVEC)) (UniProt Q9BSW2).
T1 sequence: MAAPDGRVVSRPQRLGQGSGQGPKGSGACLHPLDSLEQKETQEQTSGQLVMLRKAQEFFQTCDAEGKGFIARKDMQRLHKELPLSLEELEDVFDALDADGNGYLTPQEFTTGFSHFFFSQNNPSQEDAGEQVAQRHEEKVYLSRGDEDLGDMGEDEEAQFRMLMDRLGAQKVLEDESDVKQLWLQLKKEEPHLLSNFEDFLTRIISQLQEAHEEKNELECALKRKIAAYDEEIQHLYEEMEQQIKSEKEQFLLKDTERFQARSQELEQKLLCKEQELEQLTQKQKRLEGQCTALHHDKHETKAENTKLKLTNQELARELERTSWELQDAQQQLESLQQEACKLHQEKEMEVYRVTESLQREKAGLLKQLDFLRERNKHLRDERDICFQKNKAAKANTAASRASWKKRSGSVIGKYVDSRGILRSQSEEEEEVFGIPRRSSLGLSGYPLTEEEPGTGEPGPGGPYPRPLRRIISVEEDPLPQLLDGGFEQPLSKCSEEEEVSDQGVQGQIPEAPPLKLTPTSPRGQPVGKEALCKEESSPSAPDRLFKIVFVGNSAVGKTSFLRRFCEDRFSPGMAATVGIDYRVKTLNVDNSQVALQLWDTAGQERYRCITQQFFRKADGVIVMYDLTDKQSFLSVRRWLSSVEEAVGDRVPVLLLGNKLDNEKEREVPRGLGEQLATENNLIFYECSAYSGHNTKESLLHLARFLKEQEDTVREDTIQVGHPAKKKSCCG

Assay [3] addresses T2, GFP-Rab46 N658I (inactive, GDP-locked) (human) (UniProt Q9BSW2).
T2 sequence: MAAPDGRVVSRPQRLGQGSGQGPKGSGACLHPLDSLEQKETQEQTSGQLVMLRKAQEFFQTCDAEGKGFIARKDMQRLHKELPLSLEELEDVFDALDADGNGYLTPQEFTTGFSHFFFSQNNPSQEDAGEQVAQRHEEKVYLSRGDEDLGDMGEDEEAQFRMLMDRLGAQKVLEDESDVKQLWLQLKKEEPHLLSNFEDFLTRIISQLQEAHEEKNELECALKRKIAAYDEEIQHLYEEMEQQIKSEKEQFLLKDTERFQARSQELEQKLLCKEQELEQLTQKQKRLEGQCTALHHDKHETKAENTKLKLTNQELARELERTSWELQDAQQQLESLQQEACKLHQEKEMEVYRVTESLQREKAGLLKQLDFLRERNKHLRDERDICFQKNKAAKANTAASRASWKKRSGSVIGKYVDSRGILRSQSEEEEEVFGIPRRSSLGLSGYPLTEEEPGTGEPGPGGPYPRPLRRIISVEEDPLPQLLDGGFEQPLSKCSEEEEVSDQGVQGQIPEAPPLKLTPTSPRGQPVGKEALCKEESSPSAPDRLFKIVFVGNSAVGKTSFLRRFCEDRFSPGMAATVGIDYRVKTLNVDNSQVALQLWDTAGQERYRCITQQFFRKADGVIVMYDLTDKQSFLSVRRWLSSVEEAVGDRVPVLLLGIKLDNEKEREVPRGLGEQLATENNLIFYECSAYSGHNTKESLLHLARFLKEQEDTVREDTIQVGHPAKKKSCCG

Assay [4] has as its target dynein heavy chain (DHC), endogenous (human (endogenous in HUVEC)) (UniProt Q14204).

These are yes or no findings as the source states them, for the method shown. Binding seen in cells or lysates may run through a third protein. Some binding calls cover weakened binding; strength is not graded here. For some of these results: Sequences can lack the tags named with a protein.

As for “dynein heavy chain (DHC), endogenous (from UniProt Q14204 1-4646)”, the binding result in assay [1] is recorded as “binds”; in assay [2], “binds”; in assay [3] it was “no binding”.
Regarding “p150^Glued, subunit of dynactin, endogenous (from UniProt Q14203-1 1-1278)”, the binding result in assay [4] and in assay [2] was “binds” throughout.

B1: Rab46 (CRACR2A-L), endogenous (protein, UniProt Q9BSW2-2 1-731)
chain: MAAPDGRVVSRPQRLGQGSGQGPKGSGACLHPLDSLEQKETQEQTSGQLVMLRKAQEFFQTCDAEGKGFIARKDMQRLHKELPLSLEELEDVFDALDADGNGYLTPQEFTTGFSHFFFSQNNPSQEDAGEQVAQRHEEKVYLSRGDEDLGDMGEDEEAQFRMLMDRLGAQKVLEDESDVKQLWLQLKKEEPHLLSNFEDFLTRIISQLQEAHEEKNELECALKRKIAAYDEEIQHLYEEMEQQIKSEKEQFLLKDTERFQARSQELEQKLLCKEQELEQLTQKQKRLEGQCTALHHDKHETKAENTKLKLTNQELARELERTSWELQDAQQQLESLQQEACKLHQEKEMEVYRVTESLQREKAGLLKQLDFLRERNKHLRDERDICFQKNKAAKANTAASRASWKKRSGSVIGKYVDSRGILRSQSEEEEEVFGIPRRSSLGLSGYPLTEEEPGTGEPGPGGPYPRPLRRIISVEEDPLPQLLDGGFEQPLSKCSEEEEVSDQGVQGQIPEAPPLKLTPTSPRGQPVGKEALCKEESSPSAPDRLFKIVFVGNSAVGKTSFLRRFCEDRFSPGMAATVGIDYRVKTLNVDNSQVALQLWDTAGQERYRCITQQFFRKADGVIVMYDLTDKQSFLSVRRWLSSVEEAVGDRVPVLLLGNKLDNEKEREVPRGLGEQLATENNLIFYECSAYSGHNTKESLLHLARFLKEQEDTVREDTIQVGHPAKKKSCCG
On to B1, for which the binding entry in assay [4] and in assay [1] was “binds” throughout.
